The text below walks through data of doi:10.1101/668608.

Sequences of proteins named here, by UniProt entry; tags and fusion partners are left off.
UniProt P34152: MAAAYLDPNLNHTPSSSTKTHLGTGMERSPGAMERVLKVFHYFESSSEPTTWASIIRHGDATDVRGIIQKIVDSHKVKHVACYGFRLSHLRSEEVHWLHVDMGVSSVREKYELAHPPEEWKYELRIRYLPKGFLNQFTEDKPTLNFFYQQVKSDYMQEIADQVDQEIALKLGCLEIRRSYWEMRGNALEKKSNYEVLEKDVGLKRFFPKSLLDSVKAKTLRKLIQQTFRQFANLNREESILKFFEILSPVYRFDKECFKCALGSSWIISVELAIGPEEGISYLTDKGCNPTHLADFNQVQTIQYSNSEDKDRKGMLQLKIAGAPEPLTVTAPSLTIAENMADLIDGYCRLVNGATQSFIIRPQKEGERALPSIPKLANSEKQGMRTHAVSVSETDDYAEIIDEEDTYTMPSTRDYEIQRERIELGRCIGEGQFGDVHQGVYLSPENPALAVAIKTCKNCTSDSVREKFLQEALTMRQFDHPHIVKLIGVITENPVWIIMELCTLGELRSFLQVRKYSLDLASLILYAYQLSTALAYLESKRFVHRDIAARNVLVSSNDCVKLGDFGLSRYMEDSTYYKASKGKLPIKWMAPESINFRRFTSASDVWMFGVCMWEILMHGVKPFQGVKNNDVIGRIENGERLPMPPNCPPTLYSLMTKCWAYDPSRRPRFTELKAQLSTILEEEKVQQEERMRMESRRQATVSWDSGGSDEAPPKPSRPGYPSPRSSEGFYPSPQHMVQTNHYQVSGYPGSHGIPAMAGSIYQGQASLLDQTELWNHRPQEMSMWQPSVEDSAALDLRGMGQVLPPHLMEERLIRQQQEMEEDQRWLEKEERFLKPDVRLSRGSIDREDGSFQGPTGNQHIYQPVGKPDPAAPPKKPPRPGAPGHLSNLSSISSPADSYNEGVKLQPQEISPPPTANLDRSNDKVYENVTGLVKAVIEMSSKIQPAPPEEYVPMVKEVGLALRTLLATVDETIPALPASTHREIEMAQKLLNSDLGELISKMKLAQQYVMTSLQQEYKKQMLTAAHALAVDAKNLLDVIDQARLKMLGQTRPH

Results are given in words; binding and its absence hold for the method and conditions named. Binding seen in cells or lysates may run through a third protein. Some results given as binding are weak or reduced against the parent protein; the word gives no strength.

The test addresses focal adhesion kinase (FAK) (mouse (endogenous in splenic B cells)) (UniProt P34152). In words: co-IP.

B1: Myo1e (protein, UniProt E9Q634 1-1107)
chain: MGSKGAYRYHWQSHNVKHSGVDDMVLLSKITESSIVENLKKRYMDDYIFTYIGSVLISVNPFKQMPYFGEKEVEMYQGAAQYENPPHIYALADSMYRNMIIDRENQCVIISGESGAGKTVAAKYIMSYVSRVSGGGPKVQHVKDIILQSNPLLEAFGNAKTVRNNNSSRFGKYFEIQFSPGGEPDGGKISNFLLEKSRVVMRNPGERSFHIFYQLIEGASPEQKQSLGITSMDYYYYLSLSGSYKVDDIDDKRDFQETLHAMNVIGIFSEEQTLVLQIVAGILHLGNISFKEVGNYAAVESEEFLAFPAYLLGINQDRLKEKLTSRQMDSKWGGKSESIHVTLNVEQACYTRDALAKALHARVFDFLVDSINKAMEKDHEEYNIGVLDIYGFEIFQKNGFEQFCINFVNEKLQQIFIELTLKAEQEEYVQEGIRWTPIEYFNNKIVCDLIESKVNPPGIMSILDDVCATMHAVGEGADQTLLQKLQMQIGSHEHFNSWNQGFIIHHYAGKVSYDMDGFCERNRDVLFMDLIELMQSSELPFIKSLFPENLQADKKGRPTTAGSKIKKQANDLVSTLMKCTPHYIRCIKPNETKKPKDWEESRVKHQVEYLGLKENIRVRRAGYAYRRVFQKFLQRYAILTKATWPVWRGDEKQGVLHLLQSVNMDSDQFQLGRSKVFIKAPESLFLLEEMRERKYDGYARVIQKTWRKFVARKKYVQMREEASDLLLNKKERRRNSINRNFIGDYIGMEERPELQQFVGKREKIDFADTVTKYDRRFKGVKRDLLLTPKCLYLIGREKVKQGPDKGVVKEVLKRRIEVERILSVSLSTMQDDIFILHEQEYDSLLESVFKTEFLSLLAKRYEEKTQKQLPLKFSNTLELKLKKENWGPWSAGGSRQVQFHQGFGDLAILKPSNKVLQVSIGPGLPKNSRPTRRNTVTSRGYPGGTKNNYPMRAAPAPPGCHQNGVIRNQFVPPPHAFGNQRSNQKSLYTSMARPPLPRQQSTGSDRLSQTPESLDFLKVPDQGVAGVRRQTSSRPPPAGGRPKPQPKPKPQVPQCKALYAYDAQDTDELSFNANDIIDIIKEDPSGWWTGRLRGKQGLFPNNYVTKI
For B1, the binding entry was “binds”.
